In all, about 140,000 compounds went through this assay and about 4,300 (3.1%) were called active. The inconclusive results got no clear call from the source; some entries with a clear call stand among them for comparison.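 The calls were made as follows: active = readout at or below -70, meaning at least 70% loss of cells showing the perinucleolar compartment, a nuclear body marking cancer cells; inconclusive = readout between -30 and a set limit; inactive = the rest.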
experiment: High Content Assay for Compounds that inhibit the Assembly of the Perinucleolar Compartment; conditions: PC3M PTB-GFP, PNC prevalence imaging, 16 h; at 10 µM; active compounds read low;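 also: plate controls were DMSO wells for no effect and camptothecin positive control wells for full effect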
In short: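 Read-out is percentage of cells bearing a perinucleolar compartment, from automated 20x imaging of fixed, Hoechst-stained PC3M PTB-GFP cells. Cells were seeded 4 h, then exposed 16 h to compound (23 nl of library stock) in duplicate plates.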

Row | Structure (SMILES) | activity change (PNC), negative = inhibition
1 | N#Cc1c(N)n(CCNC(=O)c2cccs2)c2nc3ccccc3nc12 | inconclusive: -37.2%
2 | Oc1ccccc1/C=N/n1cnnc1 | inconclusive: -42.4%
3 | Cc1cc2cc(CN(CC3CCCO3)C(=O)c3cnccn3)c(=O)[nH]c2cc1C (stereo not given) | inactive: -16.5%
4 | CC1CCN(C(=O)CSc2nc3c(cnn3-c3ccc(Cl)cc3)c(=O)[nH]2)CC1 | inactive: 22.9%
5 | CC(C)(C)Nc1nc(Cl)nc(NC(C)(C)C)n1 | inconclusive: -38.8%
6 | CCCCCc1nc2ccccc2c(=O)n1N | inconclusive: -33.2%
7 | N#Cc1ccccc1NC(=O)Nc1ccc(Cl)cc1 | active: -109%
8 | CC(=O)Nc1c(O)nc(SCC(=O)N2CCN(c3ccc(F)cc3)CC2)[nH]c1=O | inactive: -0.476%
9 | COc1ccc(OC)c(C2CC(=O)N3CN(c4ccccc4)CSC3=C2C#N)c1 (stereo not given) | inactive: 34.5%
10 | O=C1C(=O)N(Cc2cccc([N+](=O)[O-])c2)c2ccccc21 | inactive: 155%
11 | CCCc1nc2sc3c(=O)n(N)cnc3c2c2c1CCCC2 | inactive: -17.6%
12 | O=C(CCSc1ccc(Cl)cc1)N1CCCCCC1 | inactive: -24.7%
13 | COc1ccc(Cl)cc1CSc1n[nH]c(C)n1 | inconclusive: -31.9%
14 | COc1ccc(C(=O)OCCN2CCOCC2)cc1 | active: -100%
15 | COC(=O)c1sc(NC(=O)Cc2cccs2)nc1C | inconclusive: -34.1%
16 | Cc1cc(NC(=O)CSc2nc3c(cc2C#N)CCCC3)no1 | inactive: 1.46%
17 | COc1ccc(NC(=O)CN2CCN(Cc3ccc4c(c3)OCO4)CC2)cc1OC | inactive: -10.6%
18 | C1CCc2c(nnc3c2-c2nonc2CC3)C1 | inactive: -16.3%
19 | CCc1c(C)nc(Nc2nc(C)c3cc(OC)ccc3n2)[nH]c1=O | inconclusive: -57.6%
20 | C=CCOC(=O)C1=C(C)Nc2nnnn2C1c1cccs1 (stereo not given) | inconclusive: -44.2%
21 | O=S(=O)(c1cccc(-c2nc3n(n2)Cc2ccccc2-3)c1)N1CCCC1 | inconclusive: -41%
22 | COc1ccc(C(=O)NNC(=O)C(C)NC(=O)c2ccccc2NC(=O)c2ccco2)cc1 (stereo not given) | active: -93.4%
23 | Cc1ccc(C(=O)NCC(=O)Nc2ccccc2C(F)(F)F)cc1 | inactive: 39%

Four entries from above, as a markdown table.

| Row | Structure (SMILES) | activity change (PNC), negative = inhibition |
| --- | --- | --- |
| 2 | Oc1ccccc1/C=N/n1cnnc1 | inconclusive: -42.4% |
| 13 | COc1ccc(Cl)cc1CSc1n[nH]c(C)n1 | inconclusive: -31.9% |
| 21 | O=S(=O)(c1cccc(-c2nc3n(n2)Cc2ccccc2-3)c1)N1CCCC1 | inconclusive: -41% |
| 22 | COc1ccc(C(=O)NNC(=O)C(C)NC(=O)c2ccccc2NC(=O)c2ccco2)cc1 (stereo not given) | active: -93.4% |

The list continues.

Row | Structure (SMILES) | activity change (PNC), negative = inhibition
24 | CCn1c(C(=O)N2CCc3ccccc3C2)cc2oc3ccccc3c21 | inactive: 1.99%
25 | Cc1ccc(S(=O)(=O)N(C)Cc2ccc(C(=O)N/N=C/c3ccc(OC(F)F)cc3OC(F)F)cc2)cc1 | inconclusive: -43.5%
26 | Cc1ccccc1-n1c(=O)c2ccccc2n2cnnc12 | inconclusive: -33.4%
27 | CC(C)(C)NC(=S)Nc1ccc(Nc2ccccc2)cc1 | inactive: 53.6%
28 | Cc1ccc(C)c(N(CC(=O)Nc2ccccc2C(=O)NCc2ccco2)S(=O)(=O)c2ccccc2)c1 | inconclusive: -35.5%
29 | O=C(NCC1CCCO1)C(c1cccs1)N(C(=O)c1ccc(CN2CCOCC2)o1)c1ccc(Cl)cc1 (stereo not given) | inconclusive: -36.6%
30 | CCn1nc(C(=O)N2CCN(Cc3ccc4c(c3)OCO4)CC2)c2ccccc2c1=O | inconclusive: -50.4%
31 | CCCCC(=O)NCc1ccc(Cl)cc1 | inactive: 12.2%
32 | COc1ccc(C(=O)N2CC3(C)CC2CC(C)(C)C3)cc1 (stereo not given) | inconclusive: -40.5%
33 | CCCc1nc(N2CCN(C)CC2)c2sc(=S)n(-c3ccccc3)c2n1 | inconclusive: -32.4%
34 | CCCC1(CCC)NC(=O)N(CC(=O)c2cc(C)n(-c3ccc4c(c3)OCO4)c2C)C1=O | inconclusive: -50.1%
35 | CSc1ccc(S(=O)(=O)NCc2ccc(Cl)cc2Cl)cc1 | inconclusive: -78.4%
36 | CC1(C)CC(CCNC(=O)c2ccc(-n3cnnn3)cc2)CC(C)(C)N1 | inconclusive: -38.7%
37 | CC1=CC(C)(C)N(C(=O)c2ccccc2)c2ccc(C)cc21 | inconclusive: -46.7%
38 | COc1ccc(NC(=O)/C(C#N)=C/c2ccc(OCc3ccccc3F)cc2)cc1 | inactive: 55.4%
39 | COc1ccc(-c2cc3ccc(OCc4nn[nH]n4)cc3oc2=O)cc1OC | inactive: 14%
40 | O=C(CN1CCN(c2ccccn2)CC1)N1CCc2ccccc21 | inconclusive: -41.3%
41 | O=S(=O)(NCCc1csc(-c2cccnc2)n1)c1ccc(Cl)s1 | inconclusive: -54.9%
42 | O=C(Nc1nc(-c2ccncc2)cs1)C1COc2ccccc2O1 (stereo not given) | inconclusive: -38.7%
43 | O=S(=O)(c1ccc(NC(=S)Nc2ccccc2)cc1)N1CCOCC1 | inactive: 19.2%
44 | CCN1CCN(C(=O)CN(C)S(=O)(=O)c2ccc(OC)c(C)c2)CC1 | inconclusive: -30%
45 | COc1ccc(NC(C)=O)cc1NC(=O)CCn1c(=O)sc2ccccc21 | inconclusive: -61.2%

Source: PubChem BioAssay AID2417 (National Center for Advancing Translational Sciences (NCATS), 2010)
